In PubChem BioAssay AID220 (DTP/NCI, 2004):
The list is a part of this screen's results and no random one: it is rich in T/C values a quarter to a half above the control, in often repeated tests (any T/C) and in doses without a T/C. Further doses and runs are listed elsewhere. T/C is the treated group as % of the vehicle group. Schedule codes are those of the source, read here as Q, the interval in days (D) or hours (H), X, the number of doses. Some T/C values carry the count of animals alive at the toxicity check (mostly the fifth day); without a count, all were alive then. Some entries give survivors of the animals treated and no T/C: the source files T/C as zero there, which appears to mark a toxic dose or a test without result, not a measured value. Survivors were counted at the toxicity check, usually on the fifth day, unless a day is given; later deaths do not show. Some doses were run more than once; their values stand side by side, smallest first.

System: CD8F1 mice, subcutaneous mammary adenocarcinoma, T/C%
Experiment: NCI In Vivo Anticancer Drug Screen. Data for tumor model Mammary Adenocarcinoma CD8F1 (subcutaneous) in CD8F1
Conditions: higher T/C = larger tumour
In short: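 Compound-treated versus vehicle-treated mice with transplantable tumors; survival or tumor size compared as T/C.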

[1] = T/C endpoint: median tumor weight change, dose: 50.0 mg/kg/injection, schedule: Q01DX001 (ip), vehicle: saline
[2] = T/C endpoint: median tumor weight change, dose: 1000.0 mg/kg/injection, schedule: Q01DX001 (ip), vehicle: saline with Tween-80
[3] = T/C endpoint: median tumor weight change, dose: 2000.0 mg/kg/injection, schedule: Q01DX001 (ip), vehicle: saline with Tween-80
[4] = T/C endpoint: median tumor weight change, dose: 250.0 mg/kg/injection, schedule: Q01DX001 (ip), vehicle: saline with Tween-80
[5] = T/C endpoint: median tumor weight change, dose: 500.0 mg/kg/injection, schedule: Q01DX001 (ip), vehicle: saline with Tween-80
[6] = T/C endpoint: median tumor weight (est.), dose: 400.0 mg/kg/injection, schedule: Q07DX005 (ip), vehicle: saline with Tween-80

COc1cc2c(c(OC)c1OC)-c1c(cc3c(c1OC)OCO3)CC(C)C(C)(O)C2OC(=O)c1ccccc1 (configuration not stated)
T/C (T/C endpoint: median tumor weight change, dose: 62.0 mg/kg/injection, schedule: Q01DX001 (ip), vehicle: saline + Tween-80 + alcohol, evaluated on day 28): 133 % of control
T/C (T/C endpoint: median tumor weight change, dose: 1000.0 mg/kg/injection, schedule: Q01DX001 (ip), vehicle: saline + Tween-80 + alcohol, evaluated on day 28): 135 % of control

C[N+](C)(C)c1cc2c(nn1)Nc1ccccc1S2
T/C (T/C endpoint: median tumor weight (est.), dose: 6.25 mg/kg/injection, schedule: Q07DX005 (ip), vehicle: Klucel (hydroxypropylcellulose) (HPC), evaluated on day 32): 143 % of control
survivor count (T/C endpoint: median tumor weight (est.), dose: 200.0 mg/kg/injection, schedule: Q07DX005 (ip), vehicle: Klucel (hydroxypropylcellulose) (HPC)): 3 of 10 on day 32

CC(=O)C1(O)Cc2c(O)c3c(c(O)c2C(OC2CC(N)C(O)C(C)O2)C1)C(=O)c1ccccc1C3=O (configuration not stated)
survivor count (T/C endpoint: median tumor weight (est.), dose: 0.8 mg/kg/injection, schedule: Q07DX005 (ip), vehicle: saline): 0 of 10 on day 30
survivor count (T/C endpoint: median tumor weight (est.), dose: 1.6 mg/kg/injection, schedule: Q07DX005 (ip), vehicle: saline): 0 of 10 on day 30

O=C(O)CCCCCCCC(=O)O
survivor count (T/C endpoint: median tumor weight change, dose: 900.0 mg/kg/injection, schedule: Q01DX001 (ip), vehicle: distilled water + Tween-80): 1 of 10 on day 36
survivor count (T/C endpoint: median tumor weight change, dose: 1800.0 mg/kg/injection, schedule: Q01DX001 (ip), vehicle: distilled water + Tween-80): 0 of 10 on day 36
survivor count (T/C endpoint: median tumor weight change, dose: 3600.0 mg/kg/injection, schedule: Q01DX001 (ip), vehicle: distilled water + Tween-80): 0 of 10 on day 36

C1CCC2OCCOCCOC3CCCCC3OCCOCCOC2C1 (configuration not stated)
T/C (T/C endpoint: median tumor weight (est.), dose: 12.5 mg/kg/injection, schedule: Q07DX005 (ip), vehicle: Klucel (hydroxypropylcellulose) (HPC), evaluated on day 30): 127 % of control

CC[n+]1ccc(Nc2ccc(NC(=O)c3ccc(C(=O)Nc4ccc(Nc5cc[n+](CC)c(N)n5)cc4)cc3)cc2)nc1N
T/C (T/C endpoint: median tumor weight (est.), dose: 12.5 mg/kg/injection, schedule: Q07DX005 (ip), vehicle: suspension in saline, evaluated on day 30): 130 % of control

O=C(O)CC(NC(=O)CP(=O)(O)O)C(=O)O (configuration not stated)
survivor count [1]: 6 of 10 on day 24

O=C1c2ccccc2C(=O)c2c3c(cc(NCCNCCO)c21)N(CCO)CCN3
survivor count [2]: 0 of 10 on day 32
survivor count [3]: 0 of 10 on day 32

CN1C(=O)CC2(CCN(CCCC(=O)c3ccc(F)cc3)CC2)C1=O
T/C (T/C endpoint: median tumor weight (est.), dose: 25.0 mg/kg/injection, schedule: Q07DX005 (ip), vehicle: suspension in saline, evaluated on day 30): 141 % of control

CCCC(=O)Oc1ccc(/C=N/NC(N)=S)nc1
T/C (T/C endpoint: median tumor weight (est.), dose: 400.0 mg/kg/injection, schedule: Q07DX005 (ip), vehicle: saline with Tween-80, evaluated on day 30): 144 % of control [8 of 10 alive on day 30]

O=C1C(NCC(O)CO)=C(N2CC2)C(=O)C(NCC(O)CO)=C1N1CC1 (configuration not stated)
survivor count (T/C endpoint: median tumor weight change, dose: 32.0 mg/kg/injection, schedule: Q01DX001 (ip), vehicle: saline): 1 of 10 on day 39
survivor count (T/C endpoint: median tumor weight change, dose: 64.0 mg/kg/injection, schedule: Q01DX001 (ip), vehicle: saline): 0 of 10 on day 39
survivor count (T/C endpoint: median tumor weight change, dose: 64.0 mg/kg/injection, schedule: Q01DX001 (ip), vehicle: suspension in saline): 1 of 10 on day 28

CCC1=C2C(=O)c3ccccc3C2=C(C)S(=O)(=O)O1
survivor count [4]: 6 of 10 on day 36
survivor count [5]: 1 of 10 on day 36

COc1cc(NCc2ccc3nc(N)nc(N)c3c2C)cc(OC)c1OC (tested in a mixture with another compound)
survivor count (T/C endpoint: median tumor weight (est.), dose: 236.0 mg/kg/injection, schedule: Q07DX005 (ip), vehicle: water): 0 of 10 on day 30
survivor count (T/C endpoint: median tumor weight (est.), dose: 354.0 mg/kg/injection, schedule: Q07DX005 (ip), vehicle: water): 0 of 10 on day 30

COc1cc(C(=O)c2cc3c(cc2C)OCO3)cc(OC)c1OC
survivor count (T/C endpoint: median tumor weight change, dose: 500.0 mg/kg/injection, schedule: Q01DX001 (ip), vehicle: Klucel (hydroxypropylcellulose) (HPC)): 3 of 10 on day 32
survivor count (T/C endpoint: median tumor weight change, dose: 1000.0 mg/kg/injection, schedule: Q01DX001 (ip), vehicle: Klucel (hydroxypropylcellulose) (HPC)): 0 of 10 on day 29 and 0 of 10 on day 32
survivor count (T/C endpoint: median tumor weight change, dose: 2000.0 mg/kg/injection, schedule: Q01DX001 (ip), vehicle: Klucel (hydroxypropylcellulose) (HPC)): 0 of 10 on day 29 and 0 of 10 on day 32

C=C/C(C)=C/[C@H](C)C(=O)C[C@H](O)CC1CC(=O)NC(=O)C1
T/C (T/C endpoint: median tumor weight (est.), dose: 25.0 mg/kg/injection, schedule: Q07DX005 (ip), vehicle: saline with Tween-80, evaluated on day 30): 125 % of control
T/C (T/C endpoint: median tumor weight (est.), dose: 50.0 mg/kg/injection, schedule: Q07DX005 (ip), vehicle: saline with Tween-80, evaluated on day 30): 139 % of control

C[PH+](C)C.C[PH+](C)C.[Au]
survivor count (T/C endpoint: median tumor weight change, dose: 25.0 mg/kg/injection, schedule: Q01DX001 (ip), vehicle: saline): 0 of 10 on day 32 and 2 of 10 on day 28
survivor count [1]: 0 of 10 on day 28 and 0 of 10 on day 32

O=C1N(CC2CO2)CCN1CC1CO1 (configuration not stated)
survivor count (T/C endpoint: median tumor weight change, dose: 250.0 mg/kg/injection, schedule: Q01DX001 (ip), vehicle: suspension in saline): 1 of 10 on day 29
survivor count (T/C endpoint: median tumor weight change, dose: 500.0 mg/kg/injection, schedule: Q01DX001 (ip), vehicle: suspension in saline): 0 of 10 on day 29
survivor count (T/C endpoint: median tumor weight change, dose: 1000.0 mg/kg/injection, schedule: Q01DX001 (ip), vehicle: suspension in saline): 0 of 10 on day 29
survivor count (T/C endpoint: median tumor weight change, dose: 2000.0 mg/kg/injection, schedule: Q01DX001 (ip), vehicle: suspension in saline): 0 of 10 on day 29

CC[C@](O)(C(=O)O)c1cc2n(c(=O)c1CO)Cc1cc3ccccc3nc1-2
survivor count (T/C endpoint: median tumor weight (est.), dose: 50.0 mg/kg/injection, schedule: Q07DX005 (ip), vehicle: saline): 6 of 10 on day 30
survivor count (T/C endpoint: median tumor weight (est.), dose: 100.0 mg/kg/injection, schedule: Q07DX005 (ip), vehicle: saline): 2 of 10 on day 30
survivor count (T/C endpoint: median tumor weight (est.), dose: 200.0 mg/kg/injection, schedule: Q07DX005 (ip), vehicle: saline): 1 of 10 on day 30

CC(CN1CC(=O)NC(=O)C1)N1CC(=O)NC(=O)C1 (configuration not stated)
survivor count (T/C endpoint: median tumor weight (est.), dose: 800.0 mg/kg/injection, schedule: Q07DX005 (ip), vehicle: Klucel (hydroxypropylcellulose) (HPC)): 0 of 10 on day 30

O=C1CN(CCN2CC(=O)N(CN3CCOCC3)C(=O)C2)CC(=O)N1CN1CCOCC1
survivor count (T/C endpoint: median tumor weight change, dose: 500.0 mg/kg/injection, schedule: Q01DX001 (ip), vehicle: water): 0 of 10 on day 29
survivor count (T/C endpoint: median tumor weight change, dose: 1000.0 mg/kg/injection, schedule: Q01DX001 (ip), vehicle: water): 0 of 10 on day 29
survivor count (T/C endpoint: median tumor weight change, dose: 2000.0 mg/kg/injection, schedule: Q01DX001 (ip), vehicle: water): 0 of 10 on day 29

BrC1CC(Br)c2c1c1c(c3c2C(Br)CC3Br)C(Br)CC1Br (configuration not stated)
survivor count (T/C endpoint: median tumor weight (est.), dose: 12.5 mg/kg/injection, schedule: Q07DX005 (ip), vehicle: saline with Tween-80): 6 of 10 on day 30
T/C (T/C endpoint: median tumor weight (est.), dose: 100.0 mg/kg/injection, schedule: Q07DX005 (ip), vehicle: saline with Tween-80, evaluated on day 30): 131 % of control
survivor count [6]: 6 of 10 on day 30

COc1c(O)c2c(c3cc(C(=O)N4CCc5c4c(O)c(OC)c4[nH]c(C(=O)N6CC7CC78C6=CC(=O)c6[nH]cc(C)c68)cc54)[nH]c13)CCN2C(N)=O (configuration not stated)
survivor count (T/C endpoint: median tumor weight (est.), dose: 25.0 micrograms/kg/injection, schedule: Q07DX005 (ip), vehicle: DMSO): 5 of 10 on day 30
survivor count (T/C endpoint: median tumor weight (est.), dose: 50.0 micrograms/kg/injection, schedule: Q07DX005 (ip), vehicle: DMSO): 4 of 10 on day 30
survivor count (T/C endpoint: median tumor weight (est.), dose: 100.0 micrograms/kg/injection, schedule: Q07DX005 (ip), vehicle: DMSO): 0 of 10 on day 30
survivor count (T/C endpoint: median tumor weight (est.), dose: 200.0 micrograms/kg/injection, schedule: Q07DX005 (ip), vehicle: DMSO): 0 of 10 on day 30

CC1/C=C/C=C/CC/C=C/C=C/C=C/C=C/C(OC2OC(C)C(O)C(N)C2O)CC2OC(CC(O)C(O)CCC(O)CC(O)CC(O)CC(=O)OC(C)C(C)C1O)CC(O)C2C(=O)O (configuration not stated)
survivor count (T/C endpoint: median tumor weight change, dose: 125.0 mg/kg/injection, schedule: Q01DX001 (ip), vehicle: saline with Tween-80): 3 of 10 on day 29
survivor count [4]: 3 of 10 on day 29
survivor count [5]: 1 of 10 on day 29

C[C@H](CCC[C@H](C)OS(=O)(=O)c1ccccc1)OS(=O)(=O)c1ccccc1
survivor count [6]: 0 of 10 on day 30
survivor count (T/C endpoint: median tumor weight (est.), dose: 800.0 mg/kg/injection, schedule: Q07DX005 (ip), vehicle: saline with Tween-80): 0 of 10 on day 30

C/C=C/C=C1/OC(C)=C(C(C)=O)C1=O
survivor count [4]: 6 of 10 on day 28
survivor count [5]: 0 of 10 on day 28 and 0 of 10 on day 29
survivor count [2]: 0 of 10 on day 28 and 0 of 10 on day 29
survivor count [3]: 0 of 10 on day 29 and 1 of 10 on day 28
